Source: patent US20190177391A1, “ANGIOPOIETIN-LIKE PROTEIN 8 (ANGPTL8)” (BAYLOR RESEARCH INSTITUTE, priority 2016, published 2019)
No constants are given. Whether binding was seen depends on the method and setting. Binding can be weak; no strength is given.

Molecular target: T1, Paired immunoglobulin-like receptor B (PirB) (mouse) (UniProt P97484)
T1 sequence (looked up): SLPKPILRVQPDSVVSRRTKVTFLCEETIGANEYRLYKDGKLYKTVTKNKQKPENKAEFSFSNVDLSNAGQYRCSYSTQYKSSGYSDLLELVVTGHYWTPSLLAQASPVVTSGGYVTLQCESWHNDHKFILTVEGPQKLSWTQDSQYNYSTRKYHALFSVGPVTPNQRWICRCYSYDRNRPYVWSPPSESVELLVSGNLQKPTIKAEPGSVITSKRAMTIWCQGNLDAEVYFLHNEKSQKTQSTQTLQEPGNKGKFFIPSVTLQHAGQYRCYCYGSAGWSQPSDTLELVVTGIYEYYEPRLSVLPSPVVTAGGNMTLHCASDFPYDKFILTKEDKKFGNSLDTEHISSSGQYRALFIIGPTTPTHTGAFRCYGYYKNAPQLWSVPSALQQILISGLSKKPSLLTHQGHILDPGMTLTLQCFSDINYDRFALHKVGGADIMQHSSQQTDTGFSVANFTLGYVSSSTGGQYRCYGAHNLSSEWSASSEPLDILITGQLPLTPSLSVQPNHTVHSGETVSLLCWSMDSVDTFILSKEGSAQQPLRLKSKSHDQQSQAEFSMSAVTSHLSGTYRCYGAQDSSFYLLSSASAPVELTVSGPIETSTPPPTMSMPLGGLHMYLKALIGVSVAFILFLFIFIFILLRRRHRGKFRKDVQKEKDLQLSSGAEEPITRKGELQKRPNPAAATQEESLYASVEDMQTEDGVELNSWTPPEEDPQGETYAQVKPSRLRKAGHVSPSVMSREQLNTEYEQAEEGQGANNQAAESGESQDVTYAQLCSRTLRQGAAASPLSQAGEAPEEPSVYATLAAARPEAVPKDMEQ
Test: immunofluorescent staining of cultured mouse HL-1 atrial muscle cells treated with 0.5 uM ADM plus 2 ng of ANGPTL8 peptide; confocal microscopy

binding: binds
Substance: ANGPTL8 peptide (ligand)
